# Percent effect of library compounds

Amino acid sequences for entries named in this document (tags omitted). Residues count along the entry.
UniProt A4I591, 1-473: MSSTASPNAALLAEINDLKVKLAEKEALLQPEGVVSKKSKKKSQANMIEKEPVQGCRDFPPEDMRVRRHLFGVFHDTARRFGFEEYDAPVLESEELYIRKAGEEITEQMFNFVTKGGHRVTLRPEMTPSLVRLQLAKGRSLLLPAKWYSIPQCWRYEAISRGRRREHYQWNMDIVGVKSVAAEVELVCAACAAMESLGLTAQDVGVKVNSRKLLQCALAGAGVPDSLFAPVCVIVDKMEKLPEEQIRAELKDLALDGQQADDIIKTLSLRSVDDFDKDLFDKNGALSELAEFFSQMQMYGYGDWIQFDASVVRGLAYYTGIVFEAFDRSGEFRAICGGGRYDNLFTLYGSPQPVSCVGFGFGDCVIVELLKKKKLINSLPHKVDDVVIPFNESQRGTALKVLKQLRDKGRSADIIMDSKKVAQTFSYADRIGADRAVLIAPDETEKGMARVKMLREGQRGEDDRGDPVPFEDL
UniProt P9WNZ1, whole entry: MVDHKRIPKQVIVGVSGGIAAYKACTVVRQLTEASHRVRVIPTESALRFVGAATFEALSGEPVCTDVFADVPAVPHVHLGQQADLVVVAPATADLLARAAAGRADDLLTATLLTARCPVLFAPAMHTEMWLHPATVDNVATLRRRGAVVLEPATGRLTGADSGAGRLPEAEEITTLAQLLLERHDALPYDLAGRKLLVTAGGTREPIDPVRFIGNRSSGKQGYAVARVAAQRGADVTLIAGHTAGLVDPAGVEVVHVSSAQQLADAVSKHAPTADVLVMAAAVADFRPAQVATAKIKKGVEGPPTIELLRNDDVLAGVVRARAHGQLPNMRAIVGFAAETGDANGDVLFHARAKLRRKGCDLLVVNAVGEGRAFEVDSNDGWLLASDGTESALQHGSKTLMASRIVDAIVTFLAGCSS
UniProt Q8IDJ8, 1-583: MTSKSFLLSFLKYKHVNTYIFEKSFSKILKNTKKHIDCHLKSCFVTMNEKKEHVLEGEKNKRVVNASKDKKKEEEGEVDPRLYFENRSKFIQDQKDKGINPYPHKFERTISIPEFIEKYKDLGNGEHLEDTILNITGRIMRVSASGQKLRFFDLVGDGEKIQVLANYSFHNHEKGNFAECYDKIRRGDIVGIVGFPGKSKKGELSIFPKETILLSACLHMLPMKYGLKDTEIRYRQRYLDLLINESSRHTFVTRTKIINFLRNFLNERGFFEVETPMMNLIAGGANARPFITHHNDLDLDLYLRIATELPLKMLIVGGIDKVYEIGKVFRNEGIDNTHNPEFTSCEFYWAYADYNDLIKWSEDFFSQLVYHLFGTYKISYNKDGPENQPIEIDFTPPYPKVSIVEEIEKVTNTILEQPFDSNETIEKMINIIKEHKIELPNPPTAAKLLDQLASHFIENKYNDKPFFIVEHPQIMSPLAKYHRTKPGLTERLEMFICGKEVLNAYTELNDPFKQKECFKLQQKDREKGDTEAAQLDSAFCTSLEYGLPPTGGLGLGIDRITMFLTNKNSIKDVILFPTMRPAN
UniProt P9WFT3, whole entry: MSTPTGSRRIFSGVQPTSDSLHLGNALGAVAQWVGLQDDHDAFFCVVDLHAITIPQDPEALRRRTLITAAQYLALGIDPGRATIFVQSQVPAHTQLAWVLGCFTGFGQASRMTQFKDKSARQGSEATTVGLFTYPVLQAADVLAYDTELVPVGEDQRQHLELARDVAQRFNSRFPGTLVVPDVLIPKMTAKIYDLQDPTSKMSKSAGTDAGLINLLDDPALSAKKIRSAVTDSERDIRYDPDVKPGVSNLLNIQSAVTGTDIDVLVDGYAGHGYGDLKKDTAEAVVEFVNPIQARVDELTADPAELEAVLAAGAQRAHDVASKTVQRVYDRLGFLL

Source: ChEMBL document CHEMBL3988442, “University of Dundee, Small-Polar-MMV Screening Library” (2021).

LiHisRS: 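Histidine-tRNA ligase, Leishmania infantum (UniProt A4I591). Enzyme assay of histidyl-tRNA synthetase; the read-out is not stated. Tested at 30 µM. Direction is inferred from retests: higher values go with stronger inhibition. The assay is labelled LdHisRS but filed under L. infantum. Size under these conditions: about 69,000 compounds, about 410 of them at 50% or above in at least one test.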
CoaBC: 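Enzyme assay of CoaBC with a phosphate dye (Biomol Green) read at 650 nm. Target: Coenzyme A biosynthesis protein CoaBC, Mycobacterium tuberculosis (UniProt P9WNZ1). Tested at 30 µM. Higher reads as stronger inhibition, judged from the few compounds that gave an IC50. Most strong results did not repeat in a second test. About 67,000 compounds were tested under these conditions; 0.06% (about 40) showed 50% or more at least once.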
PfKRS1: 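Lysine-tRNA ligase, Plasmodium falciparum 3D7 (UniProt Q8IDJ8). Enzyme assay of the cytosolic lysyl-tRNA synthetase in 384-well plates, read by luminescence. Compounds at 30 µM. Direction is inferred from only a few compounds that gave an IC50; most scored high, so higher reads as stronger inhibition. Size under these conditions: about 69,000 compounds, about 49 of them at 50% or above in at least one test.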
MtTrpRS: 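Enzyme assay of tryptophanyl-tRNA synthetase; the read-out is not stated. Target: Tryptophan-tRNA ligase, Mycobacterium tuberculosis (UniProt P9WFT3). Concentration: 10 µM. Higher most likely means stronger inhibition; the record gives no direction and few retests gave an IC50. Of about 65,000 compounds tested this way, about 64 (0.098%) reached 50% or more in at least one test.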

Values are the deposited “Percent Effect”, in %.
How 0% and 100% were set is not recorded. Most values in the screen are low, and negative values occur.
This is an unselected part of the compounds tested.

SMILES: Cc1nc(CN2C(=O)CCC23CCN(c2ncccn2)CC3)cs1
LiHisRS: 20.75%
CoaBC: 2.665%
PfKRS1: 2.658%
MtTrpRS: -4.722%

SMILES: O=C(NS(=O)(=O)c1cnn(-c2ccccc2F)c1)c1ccoc1
LiHisRS: -5.172%
CoaBC: -6.638%
PfKRS1: -2.618%
MtTrpRS: 8.901%

SMILES: Cc1cc(C2CCCN(C(=O)c3cccnc3)C2)ccn1 (centres unmarked)
LiHisRS: 19.79%
CoaBC: 3.186%
PfKRS1: 0.605%

SMILES: Cc1nnc2ccc(OCCNS(=O)(=O)c3cccs3)nn12
LiHisRS: 26.83%
CoaBC: 4.962%
PfKRS1: 3.562%
MtTrpRS: -4.157%

SMILES: CCc1nnc(NC(=O)c2ccc(C3CCCN3CC(C)C)s2)s1 (centres unmarked)
LiHisRS: 1.333%
CoaBC: -7.025%
PfKRS1: 5.5%
MtTrpRS: -6.808%

SMILES: Cn1cccc1C(O)CNC(=O)c1cccc(Cl)c1 (centres unmarked)
LiHisRS: 21.95%
CoaBC: 1.145%
PfKRS1: 2.516%
MtTrpRS: 5.197%

SMILES: O=C(C1CC1)N1CCC(c2nc(-c3ccccc3)n[nH]2)CC1
LiHisRS: 14.29%
CoaBC: 0.3165%
PfKRS1: 9.836%
MtTrpRS: 0.2337%

SMILES: CC(C)[C@H]1COC(=O)N1CC(=O)N1CCN(C(=O)c2ccco2)CC1
LiHisRS: 5.833%
CoaBC: -4.845%
PfKRS1: 1.536%
MtTrpRS: -2.46%

SMILES: CCCNc1ccc(C(=O)NCCc2ccc(Cl)cc2)cn1
LiHisRS: 19.8%
CoaBC: 2.67%
PfKRS1: 5.43%

SMILES: O=C(CCOCC(F)(F)F)NS(=O)(=O)c1cccnc1
LiHisRS: 13.7%
CoaBC: 8.058%
PfKRS1: 4.69%
MtTrpRS: -4.161%

SMILES: O=C(NCCn1cnc(C2CCCC2)cc1=O)c1ccc(=O)[nH]n1
LiHisRS: 13.91%
CoaBC: 0.2114%
PfKRS1: 3.384%
MtTrpRS: -1.14%

SMILES: CC(C)[C@H]1CN(Cc2c[nH]cn2)C[C@@H]1NC(=O)CC1CCC1
LiHisRS: -2.128%
CoaBC: 1.737%
PfKRS1: 0.0729%
MtTrpRS: -0.06345%

SMILES: CCCC(NC(=O)c1ccc(OC)cc1F)c1nnn[nH]1 (centres unmarked)
LiHisRS: 14.56%
CoaBC: 7.589%
PfKRS1: 0.7341%
MtTrpRS: 2.309%

SMILES: Cc1ncccc1C(=O)NCc1ccccc1CN(C)Cc1ccco1
LiHisRS: 23.29%
CoaBC: 8.333%
PfKRS1: 2.906%
MtTrpRS: 6.085%

SMILES: CSc1ccc(C(=O)N(c2ccc(F)cn2)C2CCOCC2)o1
LiHisRS: -1.408%
PfKRS1: -0.8124%
MtTrpRS: 1.11%

SMILES: CC(C)C1CN(Cc2cnc(N(C)C)nc2)CCCN1CC1CC1 (centres unmarked)
LiHisRS: 11.67%
CoaBC: 2.683%
PfKRS1: 3.461%
MtTrpRS: -1.358%

SMILES: CCOCc1cccc(S(=O)(=O)Nc2ccn(CC)n2)c1
LiHisRS: 17.7%
CoaBC: -4.478%
PfKRS1: 9.67%
MtTrpRS: 2.294%

SMILES: OC(CN1CCN(CC2CC2)CC1)c1ccc(Br)cc1 (centres unmarked)
LiHisRS: 21.88%
CoaBC: 8.894%
PfKRS1: 5.251%
MtTrpRS: -1.874%

SMILES: COc1nn(C)c2c1CCCN(C(=O)c1ccccc1F)C2
LiHisRS: 4.938%
CoaBC: 3.457%
PfKRS1: -0.5228%
MtTrpRS: 0.2571%

SMILES: Cc1ccccc1CSc1nc(N)cc(N2CCC(CC(N)=O)CC2)n1
LiHisRS: 30.3%
CoaBC: 17.94%
PfKRS1: 2.314%
MtTrpRS: 12.31%

SMILES: Cn1ccc(CNC(=O)Nc2ccc(S(=O)(=O)C(F)F)cc2)c1
LiHisRS: 15.49%
PfKRS1: 3.274%
MtTrpRS: 3.33%

SMILES: CCc1nc(C)ncc1C(=O)N1CCN(CC)c2ccccc21
LiHisRS: 21.28%
CoaBC: 4.715%
PfKRS1: 5.176%
MtTrpRS: 1.967%

SMILES: COCCN1CCC(NCc2cccc(C)c2)C1 (centres unmarked)
LiHisRS: 19.23%
CoaBC: 4.779%
PfKRS1: 3.679%
MtTrpRS: 32.78%

SMILES: COc1ccc2c(c1)C1(CCN(Cc3nccs3)CC1)N(C)CC2
LiHisRS: 0%
CoaBC: -37.69%
PfKRS1: 2.329%
MtTrpRS: -0.9587%

SMILES: CC(CNC(=O)Nc1ccc(C#N)cc1)N1CCc2ccccc21 (centres unmarked)
LiHisRS: 13.22%
CoaBC: 2.622%
PfKRS1: 1.735%
MtTrpRS: -2.658%

SMILES: Cc1cc(-c2cc(N)c(=O)n(CC(=O)NC3CCCC3)n2)c(C)o1
LiHisRS: 0%
CoaBC: 1.233%
PfKRS1: -0.4245%
MtTrpRS: 0.2639%

SMILES: CCN(CC)C(=O)c1ccc(-c2ccsc2)nc1C
LiHisRS: 22.12%
CoaBC: -3.376%
PfKRS1: 12.11%
MtTrpRS: -6.445%

SMILES: Cn1cc(C(O)CNC(=O)c2sccc2OC(F)F)cn1 (centres unmarked)
LiHisRS: 11.43%
CoaBC: 17.49%
PfKRS1: 0.5337%
MtTrpRS: -2.351%

SMILES: CCS(=O)(=O)CC(C)N(C)C(=O)NCCc1cccc(F)c1F (centres unmarked)
LiHisRS: 10.83%
PfKRS1: 2.361%
MtTrpRS: 3.302%

SMILES: CNC(=O)Cn1c(CO)cnc1SCc1ccccc1Cl
LiHisRS: 17.2%
CoaBC: 4.377%
PfKRS1: 0.04551%
MtTrpRS: -2.083%

SMILES: O=C1CN(C(=O)c2nnn(-c3ccc(C(F)(F)F)cc3)n2)CCN1
LiHisRS: -19.13%
CoaBC: 1.903%
PfKRS1: 0.6904%
MtTrpRS: -3.571%

Repeated from the top, 2 entries:

{"smiles": "Cc1nc(CN2C(=O)CCC23CCN(c2ncccn2)CC3)cs1", "LiHisRS": 20.75, "CoaBC": 2.665, "PfKRS1": 2.658, "MtTrpRS": -4.722}
{"smiles": "O=C(NS(=O)(=O)c1cnn(-c2ccccc2F)c1)c1ccoc1", "LiHisRS": -5.172, "CoaBC": -6.638, "PfKRS1": -2.618, "MtTrpRS": 8.901}